The experiment is described as follows: qHTS Assay to Find Inhibitors of Chronic Active B-Cell Receptor Signaling. The note with it: ABC-DLBCL IkBa-CBG/CBR reporter, luminescence ratio (green luciferase fused to IkBa over red control in TMD8 lymphoma cells), 4 h. The essentials:
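TMD8 ABC-DLBCL cells carrying doxycycline-inducible green luciferase fused to IkappaBalpha plus unfused red luciferase were exposed to compounds (up to 46 uM) for 4 hrs at 37C. Activity came from the overlap-corrected green/red luminescence ratio.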

Where [1] appears, read: measured here: CBR red luminescence, cell number.
[2] abbreviates: measured here: IkBa-CBG green luminescence.

Some of the results follow. These are further read-outs of the screen, such as a control signal, another cell line or another target. No call is given for them. Most of these compounds were active or inconclusive in the main read-out, so they are no random draw. Words in brackets tell the shape of the fitted curve; partial curves, single points and poor fits give uncertain potencies.

As to `COc1ccc(C/C(C)=N/NC(=O)c2cccnc2)cc1`, under setting [1], the concentration at half-maximal activity (AC50) was 18.4 µM [falling, single point].

As for `CCN(CC)S(=O)(=O)c1ccc(N/N=C/c2cc(OC)ccc2O)nc1`, under setting [1], the AC50 is 11.6 µM [rising, partial curve]. As to `O=C1c2ccccc2S(=O)(=O)N1Cc1nc2ccccc2s1`, the concentration at half-maximal activity (AC50) under setting [1] is 1.78 µM [rising, full curve].

Consider `Cc1ccc(NC(=O)CSc2nnc(-c3cc(C)on3)o2)cc1`, for which the AC50 under setting [1] was 3.16 µM [rising, full curve, poor fit]. In the case of `O=C(Nc1nccs1)c1ccc(S(=O)(=O)c2ccccc2)cc1`, under setting [1], the AC50 was 0.708 µM [falling, full curve, poor fit].

As to `N#Cc1cc2sc3nc4ccccc4n3c2cc1C#N`, under setting [1], the AC50 is 9.2 µM [falling, partial curve, poor fit]. Turning to `NNC(=O)c1cc2cc(OC(F)(F)F)ccc2[nH]1`, under setting [2], the AC50 is 35.5 µM [falling, partial curve, poor fit]. On to `Cc1cccc(NC(=O)C(=O)NCC2CCCN2S(=O)(=O)c2ccccc2)c1` (stereo not drawn), for which the concentration at half-maximal activity (AC50) under setting [1] is 29.1 µM [falling, single point]. As to `CC(C)N1C(=S)N(Cc2ccco2)C(=O)C1CC(=O)Nc1ccccc1` (stereo not drawn), the AC50 under setting [1] is 35.5 µM [falling, single point]. `COC(=O)c1nn(-c2ccccc2)c(Sc2ccc(C)cc2)c1/C=N/O`: under setting [1], the AC50 was 7.94 µM [falling, partial curve, poor fit].

Consider `O=C(COC(=O)c1ccccn1)Nc1nc(-c2cccc([N+](=O)[O-])c2)cs1`, for which the AC50 under setting [1] is 12.6 µM [rising, single point].

Regarding `COc1cccc(/C=C/C(=O)NCCc2ccc3c(c2)OCCO3)c1`, the AC50 under setting [1] is 7.31 µM [falling, partial curve].

`COc1ccccc1[C@H]1C(c2ccc(F)cc2)=NN(c2ccccc2)[C@@H]1CO`: under setting [1], the concentration at half-maximal activity (AC50) is 5.8 µM [rising, partial curve, poor fit]. Turning to `Cc1ccc(-n2nc3cc(C)c(NC(=S)NC(=O)/C=C/c4ccco4)cc3n2)cc1`, the half-maximal activity concentration (AC50) under setting [1] is 0.231 µM [rising, partial curve, poor fit]. `Cc1[nH]n(-c2ccccc2)c(=O)c1N=O`: the AC50 under setting [2] is 7.08 µM [rising, partial curve, poor fit].

In the case of `CN(C)S(=O)(=O)c1cc(NC(=O)COC(=O)CC2Sc3ccccc3NC2=O)ccc1Cl` (stereo not drawn), the concentration at half-maximal activity (AC50) under setting [1] was 1.03 µM [rising, full curve, poor fit]. The same measure, in the same setting: as for `O=c1ccc(-c2ccc(S(=O)(=O)Nc3cccc([N+](=O)[O-])c3)s2)n[nH]1`, the figure is 14.1 µM [falling, partial curve]; as for `COc1ccc(OC(=O)c2c(C)nn(-c3ccccc3)c2C)cc1`, 3.55 µM [rising, partial curve]; as for `Cc1ccc(S(=O)(=O)NCCN=C(CN2CCOCC2)NS(=O)(=O)c2ccc(C)cc2)cc1`, 29.1 µM [falling, partial curve, poor fit]. On to `COc1ccc2nc(Nc3ccccc3OC)sc2c1`, for which the concentration at half-maximal activity (AC50) under setting [1] was 11.2 µM [falling, single point]. In the case of `CCC1C(=O)C[C@H]2CCN3C(=O)CCCC1C23` (stereo partly drawn), under setting [1], the AC50 was 14.6 µM [rising, partial curve, poor fit].

`C=CCN1C(=O)/C(=C/c2ccc(O)c(OC)c2)S/C1=N/c1nccs1`: under setting [1], the AC50 is 0.00731 µM [rising, full curve, poor fit]. The same measure, in the same setting: as for `C[C@@H]1CC=C[C@H]2[C@H]1C(=O)N(Cc1ccccc1)[C@H]2c1ccc(Br)cc1F`, the figure is 31.6 µM [rising, single point]. `C#CCCc1ccccc1/C=[N+](/C)[O-]`: the AC50 under setting [1] was 4.11 µM [falling, partial curve, poor fit]. The same measure, in the same setting: as for `CCOC(=O)N1CCc2c(sc(NC(=O)CN3CCOCC3)c2C#N)C1`, the figure is 35.5 µM [falling, single point]. With `CCCCCc1cc(=O)c2ccccc2o1`, under setting [1], the AC50 is 6.51 µM [rising, full curve, poor fit]. Regarding `N/C(=N\OC(=O)CC1CCCCC1)c1ccc([N+](=O)[O-])cc1`, the AC50 under setting [1] is 29.1 µM [rising, single point]. The same measure, in the same setting: with `CCc1cccc(NC2c3ccccc3C(=O)N2c2ccc(C)cn2)c1` (stereo not drawn) the figure was 1.64 µM [falling, partial curve, poor fit]. Still for that read-out and setting: with `COc1cccc(NC(=O)N2CCC(NC(=O)C(Cc3ccccc3F)NC(C)=O)CC2)c1` (stereo not drawn) the figure was 35.5 µM [falling, partial curve, poor fit]; with `Cc1cc(C(=O)Nc2ccc(Cl)cc2)c2ccccc2n1`, 22.4 µM [rising, single point]; with `O=C(Nc1nc2c(s1)CN(Cc1ccccc1)CC2)C1CCC1`, 35.5 µM [rising, partial curve, poor fit]. On the same count and under the same terms, with `C=CCSc1nnc(-c2cc3c(s2)-c2ccccc2CC3)o1` the figure was 0.82 µM [rising, full curve, poor fit]; with `COc1ccc(C(=O)NCCCNC(=O)c2cnccn2)cc1Br`, 0.0891 µM [rising, full curve, poor fit]; with `CC(C)CCC(CCNCc1ccccn1)c1ccc(Cl)cc1` (stereo not drawn), 25.1 µM [falling, single point]. With `COc1ccc2cc(-c3ccon3)ccc2c1`, under setting [1], the half-maximal activity concentration (AC50) was 35.5 µM [rising, single point]. The same measure, in the same setting: with `COc1cc(-c2nnc(SCc3c(F)cccc3Cl)o2)cc(OC)c1OC` the figure was 32.6 µM [falling, single point]; with `NC(=O)c1cc(-c2ccccc2)sc1NC(=O)CN1CCCCC1`, 2.06 µM [rising, full curve, poor fit]. `COc1ccc(/C=N/NC(=O)c2cccnc2)cc1COc1ccc(NC(C)=O)cc1`: the half-maximal activity concentration (AC50) under setting [1] is 15.8 µM [rising, partial curve] and the concentration at half-maximal activity (AC50) under setting [2] is 12.6 µM [falling, partial curve, poor fit]. As for `CCn1ncc(/C=N/O)c1C`, the half-maximal activity concentration (AC50) under setting [1] was 0.411 µM [rising, full curve, poor fit]. Still for that read-out and setting: as for `COc1ccccc1C1(O)C(=O)Nc2ccccc21` (stereo not drawn), the figure is 1.26 µM [rising, full curve, poor fit]; as for `Cc1ccc(S(=O)(=O)N2CCC(C(=O)N[C@@H](C)C(=O)NCCc3ccccc3)CC2)cc1`, 12.6 µM [rising, single point]; as for `CC(C)(C)c1ccc(C(=O)Nc2ccc(F)cc2)s1`, 6.31 µM [falling, partial curve].

Consider `CCOc1ncccc1C(=O)OCC(=O)Nc1ccc(Cl)cn1`, for which the half-maximal activity concentration (AC50) under setting [1] was 7.31 µM [falling, partial curve, poor fit]. Regarding `CCN(CC(=O)NC1CCCC1)S(=O)(=O)c1ccc(Br)cc1`, under setting [1], the concentration at half-maximal activity (AC50) is 20 µM [rising, single point]. Consider `Cc1cccc(-n2c(CCn3nc(C)c([N+](=O)[O-])c3C)n[nH]c2=S)c1`, for which, under setting [1], the AC50 was 29.1 µM [falling, single point]. Consider `COc1ccc(C(=O)Nn2c(CCC(=O)O)ccc2-c2ccc(C)cc2)cc1OC`, for which the half-maximal activity concentration (AC50) under setting [1] was 10 µM [rising, partial curve].

On to `Cc1c(NC(=O)C(C)OC(=O)c2cccnc2Cl)c(=O)n(-c2ccccc2)n1C` (stereo not drawn), for which the AC50 under setting [1] is 2.06 µM [rising, full curve, poor fit]. Take `COc1cc2c(cc1NC(=O)c1cccc(S(=O)(=O)N(C)C)c1)oc1ccccc12`: under setting [1], the half-maximal activity concentration (AC50) was 9.2 µM [falling, partial curve, poor fit]. Consider `O=C(CC1SC2=NCCN2C1=O)Nc1ccc(Cl)cc1` (stereo not drawn), for which the AC50 under setting [1] is 6.51 µM [rising, partial curve, poor fit]. The same measure, in the same setting: with `COc1cccc(NC(=O)C(Cc2ccccc2)n2cccc2)c1` (stereo not drawn) the figure was 35.5 µM [falling, single point]; with `Cc1ccccc1OCC(=O)OCC(=O)NCCNC(=O)COC(=O)COc1ccccc1C`, 0.291 µM [rising, full curve]. With `O=C1CCC(C(=O)OCc2ccccc2)N1` (stereo not drawn), the AC50 under setting [1] was 16.4 µM [falling, single point].

`CN(C(=O)CN1C(=O)/C(=C/c2ccccc2F)SC1=S)C1CCS(=O)(=O)C1` (stereo not drawn): the concentration at half-maximal activity (AC50) under setting [1] was 15.8 µM [falling, partial curve, poor fit]. Regarding `N#Cc1ccccc1OCC(=O)NC(N)=O`, the AC50 under setting [1] was 29.1 µM [falling, single point]. Turning to `C/C(CC(=O)Nc1cccc(Cl)c1Cl)=N\NC(=O)c1ccccc1N`, the concentration at half-maximal activity (AC50) under setting [1] was 11.2 µM [falling, partial curve]. For `CC(Oc1ccc(Cl)cc1Cl)C(=O)Nc1ncccn1` (stereo not drawn), under setting [1], the half-maximal activity concentration (AC50) was 17.8 µM [falling, partial curve]. The same measure, in the same setting: as for `CN(C)Cc1nc2ccccc2c(=O)n1CC#N`, the figure is 12.6 µM [rising, single point]; as for `Cc1cc(NS(=O)(=O)c2ccc(NC(=O)C(C)Oc3cc(C)c(Cl)c(C)c3)cc2)no1` (stereo not drawn), 14.1 µM [falling, single point]. As to `CCN(CC)S(=O)(=O)c1ccc(C(=O)NCCSc2c[nH]c3ccccc23)cc1`, the AC50 is, setting by setting: under setting [1], 6.51 µM [rising, single point]; under setting [2], 8.2 µM [falling, partial curve]. With `C=CCC[C@H](Cc1ccc(F)cc1)C(=O)OC[C@@H](NC(=O)[C@@H](CC=C)CC(=O)N[C@@H](CO)Cc1ccccc1)C(C)(C)C`, the concentration at half-maximal activity (AC50) under setting [1] was 29.1 µM [falling, single point]. Same read-out and setting: with `CCCCn1c(=N)n(CC(O)COc2ccc(C)cc2)c2ccccc21` (stereo not drawn) the figure was 35.5 µM [falling, single point]; with `O=C(COC(=O)CCc1ccccc1)NCc1ccccc1`, 1.03 µM [falling, full curve]; with `Clc1ccc(-c2nc(NCCCN3CCOCC3)c3ccccc3n2)cc1`, 35.5 µM [falling, single point].

Regarding `COc1ccc(S(=O)(=O)NC2CCCC2)c(Cl)c1Cl`, the AC50 under setting [1] was 4.61 µM [rising, single point]. Take `O=C(/C=C/c1ccc(-c2ccccc2[N+](=O)[O-])o1)c1ccccc1`: the AC50 runs as follows: under setting [1], 29.1 µM [falling, single point]; under setting [2], 25.9 µM [falling, partial curve, poor fit].

The record behind these values is PubChem BioAssay AID493014 (National Center for Advancing Translational Sciences (NCATS), 2011).
